# Source: PubChem BioAssay AID504834 (National Center for Advancing Translational Sciences (NCATS), 2011)
# Hit rate of the full screen: of about 320,000 compounds, about 22,000 (6.9%) were called active. Inconclusive means that the source gave no clear call. Such entries were picked first, then a sample of the others. Calls come from the whole dose curve; as a rule, active = well fitted inhibition curve with a large enough effect; inconclusive = small, poorly fitted or top-dose-only effect, or another doubt; inactive = no such curve, though single readings can be large or run the other way. Where the call is inconclusive, the potency comes from a doubtful curve fit.
# Assay: Primary qHTS for delayed death inhibitors of the malarial parasite plastid, 96 hour incubation
# Conditions: P. falciparum luciferase reporter growth; series mostly up to 28.7 µM; activity change, negative = inhibition: at the top concentration
# Summary of the method: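 96 h incubation, 37 C, 5% CO2, of luciferase-reporter P. falciparum-infected RBCs (2% hematocrit, 0.05% parasitemia final) with test compounds; endpoint luminescence.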
# % is set by controls: 0 for no effect and ±100 for the full control effect; potency is the fitted concentration of half-maximal effect.
Structure (SMILES),Potency,"activity change, negative = inhibition"
COc1cc(CNC2CCCC2)cc(Cl)c1OCc1ccccc1F,"inconclusive: 16.5 µM [inhibitor, single point]",–
CN1C(=O)N(CC(=O)N2CCN(S(=O)(=O)/C=C/c3ccccc3)CC2)C(=O)C12CCCCC2,–,inactive: -14.3%
Cc1ccc(-n2ccnc2SCC(=O)c2c(N)n(C3CC3)c(=O)[nH]c2=O)cc1C,"inconclusive: 13.1 µM [inhibitor, single point]",–
COC(=O)CN(c1ccc2c(c1)OCCO2)S(=O)(=O)c1ccccc1,–,inactive: 16.5%
O=C(/C=C/c1ccc([N+](=O)[O-])cc1)N1CCN(Cc2ccccc2)CC1,"inconclusive: 13.1 µM [inhibitor, partial curve, poor fit]",–
Cc1cc(N2CCN(C)CC2)nc2ccc(NC(=S)N3CCC4(CC3)OCCO4)cc12,active: 11.7 µM,–
CCCNC(=O)C(Cc1ccc(Br)cc1)NC(=O)c1ccc(C#N)cc1 (stereo not given),–,inactive: 29.5%
COCCN(C(=O)c1ccc(-c2ccc(Cl)cc2)o1)c1c(N)n(Cc2ccccc2)c(=O)[nH]c1=O,"inconclusive: 9.28 µM [inhibitor, single point]",–
O=C(CSc1nc2nccnc2c(=O)n1Cc1cccs1)Nc1ccccc1F,"inconclusive: 13.1 µM [inhibitor, single point]",–
O=C1c2ccccc2OC2(C=Cc3ccccc3O2)N1Cc1ccccc1 (stereo not given),active: 4.15 µM,–
Cc1nc(=O)c(-c2ccccc2)c(C)n1-c1ccc(C(=O)O)cc1,active: 1.65 µM,–
CC(C)CC(=O)NC(=S)Nc1nc(-c2ccccc2)cs1,"inconclusive: 11.7 µM [inhibitor, partial curve, poor fit]",–
CC(=O)c1ccc(NC(=O)C(C)n2nc(-c3ccccc3)c3cc(Cl)ccc32)cc1 (stereo not given),active: 1.17 µM,–
C=C(C)CNc1cc(S(=O)(=O)N2CCOCC2)ccc1Oc1ccccc1,"inconclusive: 18.5 µM [inhibitor, single point]",–
Cc1ccc(S(C)(=O)=NC(=O)NC(=O)c2c(Cl)cccc2Cl)cc1 (stereo not given),"inconclusive: 1.65 µM [inhibitor, single point]",–
CCOC(=O)c1cc(C#N)c(N2CCCC2)nc1-c1ccccc1,"inconclusive: 6.57 µM [inhibitor, partial curve, poor fit]",–
CCCNC(=O)c1ccc(N2CCC3(CC2)CC(c2cccc(Br)c2)=NO3)c(NC(=O)c2c(Cl)cccc2Cl)c1,"inconclusive: 18.5 µM [inhibitor, single point]",–
O=S(=O)(NCC1CCCO1)c1ccc2c(c1)OCCO2 (stereo not given),"inconclusive: 0.522 µM [inhibitor, partial curve, poor fit]",–
CCOC(=O)c1c(C)[nH]c(O)c1C=Nc1ccc(Cl)cc1,–,inactive: 0%
O=C(CSCc1ccccc1)NCc1ccc2c(c1)OCO2,"inconclusive: 16.5 µM [inhibitor, partial curve, poor fit]",–
Cc1ccc(NC(=O)C2CCCN(C(=O)Nc3ccc(F)cc3)C2)cc1 (stereo not given),–,inactive: 14.3%
CCCC(=O)NCCCc1nc2ccccc2n1C,"inconclusive: 9.28 µM [inhibitor, single point]",–
Cc1ccccc1NC(=O)OCc1ccccc1,"inconclusive: 18.5 µM [inhibitor, single point]",–

Structure (SMILES),Potency,"activity change, negative = inhibition"
CN(C)CCCN(Cc1cc2cc3c(cc2[nH]c1=O)OCO3)C(=S)Nc1cccc(Cl)c1,"inconclusive: 5.86 µM [inhibitor, partial curve, poor fit]",–
CCOc1cccc(-c2c(C(=O)N/N=C(\C)c3cccs3)nnn2-c2nonc2N)c1,"inconclusive: 10.4 µM [inhibitor, single point]",–
CCN(CC)CCCC1(CN)OCCc2ccccc21 (stereo not given),"inconclusive: 9.28 µM [inhibitor, partial curve, poor fit]",–
CC(=O)c1ccc(Oc2cc(C)nc(NCc3ccccc3)n2)cc1,"inconclusive: 2.33 µM [inhibitor, full curve]",–
O=C(CN(c1ccccc1)S(=O)(=O)c1ccc(F)cc1)NCc1cccs1,"inconclusive: 11.7 µM [inhibitor, single point]",–
CC(=O)c1cnc(-c2ccccn2)s1,"inconclusive: 10.4 µM [inhibitor, partial curve]",–
C=CCOc1ccc(Br)cc1CNC(C)(C)CO,–,inactive: 9.7%
COc1cc(NC(=O)c2cccs2)c(C(=O)OCC(=O)c2cc(C)n(-c3ccc(F)cc3)c2C)cc1OC,active: 2.62 µM,–
CCOC(=O)c1[nH]c2ccc(OCC)cc2c1CCCN1C(=O)c2ccccc2C1=O,"inconclusive: 14.7 µM [inhibitor, single point]",–
CSc1nnc(CCNS(=O)(=O)c2ccc(Br)cc2)n1C,–,inactive: 26.3%
Cn1c(=O)c([N+](=O)[O-])c(N2CCN(Cc3ccc4c(c3)OCO4)CC2)c2ccccc21,active: 11.7 µM,–
Cc1cc(Cl)c(S(=O)(=O)Nc2ccc3c(c2)OCO3)cc1OCC(=O)NC1CCCCC1,"inconclusive: 11.7 µM [inhibitor, partial curve]",–
CSc1ccccc1NC(=O)c1cc(-c2ccc3c(c2)OCO3)on1,–,inactive: 75.4%
CN(C(=O)c1ccco1)c1nc(-c2ccc(F)cc2)cs1,"inconclusive: 8.28 µM [inhibitor, single point]",–
COc1ccc(F)cc1-c1nc(N)nc(N)n1,–,inactive: 23.7%
O=C(Cc1nnc(NC(=O)Nc2ccccc2F)s1)NCc1ccccc1,–,inactive: 37%
COc1ccc(-c2csc(NC(=O)c3cc(C)oc3C)n2)cc1OC,"inconclusive: 13.1 µM [inhibitor, partial curve, poor fit]",–
O=C1SC(SCc2ccccc2)=N/C1=C\c1ccc(C(=O)O)cc1,–,inactive: -17.3%
Cc1c(N/C=C/C(=O)c2cccs2)c(=O)n(-c2ccccc2)n1C,–,inactive: -17.3%
O=C(CN1CCN(c2ccc(O)cc2)CC1)Nc1ccccc1C(=O)NCCc1ccccc1,"inconclusive: 16.5 µM [inhibitor, single point]",–
COc1cccc(NC(=O)CN(C)C(=O)c2cc(-c3ccco3)nc3ccccc23)c1,"inconclusive: 11.7 µM [inhibitor, partial curve]",–
CS(=O)(=O)Nc1ccc(C(=O)Nc2ccc3c(c2)OCCO3)cc1,–,inactive: 96.8%

# 4 compounds picked at random from those above:
Structure (SMILES),Potency,"activity change, negative = inhibition"
CN(C)CCCN(Cc1cc2cc3c(cc2[nH]c1=O)OCO3)C(=S)Nc1cccc(Cl)c1,"inconclusive: 5.86 µM [inhibitor, partial curve, poor fit]",–
COc1ccc(F)cc1-c1nc(N)nc(N)n1,–,inactive: 23.7%
O=C(CN1CCN(c2ccc(O)cc2)CC1)Nc1ccccc1C(=O)NCCc1ccccc1,"inconclusive: 16.5 µM [inhibitor, single point]",–
C=CCOc1ccc(Br)cc1CNC(C)(C)CO,–,inactive: 9.7%
